Source: the supplement of paper PMC10849652
The other results are listed elsewhere or left out.

The chains behind the UniProt entries cited, without tags or fusion partners. Where a name states a change or a piece, a line headed by the entry shows the natural chain unless it says otherwise.
UniProt O14879: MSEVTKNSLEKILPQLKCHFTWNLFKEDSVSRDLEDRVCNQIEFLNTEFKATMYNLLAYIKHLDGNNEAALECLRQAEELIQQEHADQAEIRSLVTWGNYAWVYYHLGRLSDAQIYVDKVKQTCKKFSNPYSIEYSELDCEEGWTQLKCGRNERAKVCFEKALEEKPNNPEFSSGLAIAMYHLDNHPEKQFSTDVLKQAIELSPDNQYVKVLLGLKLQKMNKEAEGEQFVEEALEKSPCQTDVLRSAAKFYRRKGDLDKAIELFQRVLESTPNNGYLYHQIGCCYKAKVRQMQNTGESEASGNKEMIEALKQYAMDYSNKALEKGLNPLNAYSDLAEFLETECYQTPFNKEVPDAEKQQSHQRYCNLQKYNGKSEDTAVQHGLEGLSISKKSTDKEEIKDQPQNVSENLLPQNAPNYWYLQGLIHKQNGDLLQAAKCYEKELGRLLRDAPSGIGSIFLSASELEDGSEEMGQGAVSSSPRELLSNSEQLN
UniProt Q9NRY2: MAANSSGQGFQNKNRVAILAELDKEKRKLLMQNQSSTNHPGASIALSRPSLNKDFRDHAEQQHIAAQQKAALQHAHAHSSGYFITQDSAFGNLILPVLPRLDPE
UniProt Q4G0P3: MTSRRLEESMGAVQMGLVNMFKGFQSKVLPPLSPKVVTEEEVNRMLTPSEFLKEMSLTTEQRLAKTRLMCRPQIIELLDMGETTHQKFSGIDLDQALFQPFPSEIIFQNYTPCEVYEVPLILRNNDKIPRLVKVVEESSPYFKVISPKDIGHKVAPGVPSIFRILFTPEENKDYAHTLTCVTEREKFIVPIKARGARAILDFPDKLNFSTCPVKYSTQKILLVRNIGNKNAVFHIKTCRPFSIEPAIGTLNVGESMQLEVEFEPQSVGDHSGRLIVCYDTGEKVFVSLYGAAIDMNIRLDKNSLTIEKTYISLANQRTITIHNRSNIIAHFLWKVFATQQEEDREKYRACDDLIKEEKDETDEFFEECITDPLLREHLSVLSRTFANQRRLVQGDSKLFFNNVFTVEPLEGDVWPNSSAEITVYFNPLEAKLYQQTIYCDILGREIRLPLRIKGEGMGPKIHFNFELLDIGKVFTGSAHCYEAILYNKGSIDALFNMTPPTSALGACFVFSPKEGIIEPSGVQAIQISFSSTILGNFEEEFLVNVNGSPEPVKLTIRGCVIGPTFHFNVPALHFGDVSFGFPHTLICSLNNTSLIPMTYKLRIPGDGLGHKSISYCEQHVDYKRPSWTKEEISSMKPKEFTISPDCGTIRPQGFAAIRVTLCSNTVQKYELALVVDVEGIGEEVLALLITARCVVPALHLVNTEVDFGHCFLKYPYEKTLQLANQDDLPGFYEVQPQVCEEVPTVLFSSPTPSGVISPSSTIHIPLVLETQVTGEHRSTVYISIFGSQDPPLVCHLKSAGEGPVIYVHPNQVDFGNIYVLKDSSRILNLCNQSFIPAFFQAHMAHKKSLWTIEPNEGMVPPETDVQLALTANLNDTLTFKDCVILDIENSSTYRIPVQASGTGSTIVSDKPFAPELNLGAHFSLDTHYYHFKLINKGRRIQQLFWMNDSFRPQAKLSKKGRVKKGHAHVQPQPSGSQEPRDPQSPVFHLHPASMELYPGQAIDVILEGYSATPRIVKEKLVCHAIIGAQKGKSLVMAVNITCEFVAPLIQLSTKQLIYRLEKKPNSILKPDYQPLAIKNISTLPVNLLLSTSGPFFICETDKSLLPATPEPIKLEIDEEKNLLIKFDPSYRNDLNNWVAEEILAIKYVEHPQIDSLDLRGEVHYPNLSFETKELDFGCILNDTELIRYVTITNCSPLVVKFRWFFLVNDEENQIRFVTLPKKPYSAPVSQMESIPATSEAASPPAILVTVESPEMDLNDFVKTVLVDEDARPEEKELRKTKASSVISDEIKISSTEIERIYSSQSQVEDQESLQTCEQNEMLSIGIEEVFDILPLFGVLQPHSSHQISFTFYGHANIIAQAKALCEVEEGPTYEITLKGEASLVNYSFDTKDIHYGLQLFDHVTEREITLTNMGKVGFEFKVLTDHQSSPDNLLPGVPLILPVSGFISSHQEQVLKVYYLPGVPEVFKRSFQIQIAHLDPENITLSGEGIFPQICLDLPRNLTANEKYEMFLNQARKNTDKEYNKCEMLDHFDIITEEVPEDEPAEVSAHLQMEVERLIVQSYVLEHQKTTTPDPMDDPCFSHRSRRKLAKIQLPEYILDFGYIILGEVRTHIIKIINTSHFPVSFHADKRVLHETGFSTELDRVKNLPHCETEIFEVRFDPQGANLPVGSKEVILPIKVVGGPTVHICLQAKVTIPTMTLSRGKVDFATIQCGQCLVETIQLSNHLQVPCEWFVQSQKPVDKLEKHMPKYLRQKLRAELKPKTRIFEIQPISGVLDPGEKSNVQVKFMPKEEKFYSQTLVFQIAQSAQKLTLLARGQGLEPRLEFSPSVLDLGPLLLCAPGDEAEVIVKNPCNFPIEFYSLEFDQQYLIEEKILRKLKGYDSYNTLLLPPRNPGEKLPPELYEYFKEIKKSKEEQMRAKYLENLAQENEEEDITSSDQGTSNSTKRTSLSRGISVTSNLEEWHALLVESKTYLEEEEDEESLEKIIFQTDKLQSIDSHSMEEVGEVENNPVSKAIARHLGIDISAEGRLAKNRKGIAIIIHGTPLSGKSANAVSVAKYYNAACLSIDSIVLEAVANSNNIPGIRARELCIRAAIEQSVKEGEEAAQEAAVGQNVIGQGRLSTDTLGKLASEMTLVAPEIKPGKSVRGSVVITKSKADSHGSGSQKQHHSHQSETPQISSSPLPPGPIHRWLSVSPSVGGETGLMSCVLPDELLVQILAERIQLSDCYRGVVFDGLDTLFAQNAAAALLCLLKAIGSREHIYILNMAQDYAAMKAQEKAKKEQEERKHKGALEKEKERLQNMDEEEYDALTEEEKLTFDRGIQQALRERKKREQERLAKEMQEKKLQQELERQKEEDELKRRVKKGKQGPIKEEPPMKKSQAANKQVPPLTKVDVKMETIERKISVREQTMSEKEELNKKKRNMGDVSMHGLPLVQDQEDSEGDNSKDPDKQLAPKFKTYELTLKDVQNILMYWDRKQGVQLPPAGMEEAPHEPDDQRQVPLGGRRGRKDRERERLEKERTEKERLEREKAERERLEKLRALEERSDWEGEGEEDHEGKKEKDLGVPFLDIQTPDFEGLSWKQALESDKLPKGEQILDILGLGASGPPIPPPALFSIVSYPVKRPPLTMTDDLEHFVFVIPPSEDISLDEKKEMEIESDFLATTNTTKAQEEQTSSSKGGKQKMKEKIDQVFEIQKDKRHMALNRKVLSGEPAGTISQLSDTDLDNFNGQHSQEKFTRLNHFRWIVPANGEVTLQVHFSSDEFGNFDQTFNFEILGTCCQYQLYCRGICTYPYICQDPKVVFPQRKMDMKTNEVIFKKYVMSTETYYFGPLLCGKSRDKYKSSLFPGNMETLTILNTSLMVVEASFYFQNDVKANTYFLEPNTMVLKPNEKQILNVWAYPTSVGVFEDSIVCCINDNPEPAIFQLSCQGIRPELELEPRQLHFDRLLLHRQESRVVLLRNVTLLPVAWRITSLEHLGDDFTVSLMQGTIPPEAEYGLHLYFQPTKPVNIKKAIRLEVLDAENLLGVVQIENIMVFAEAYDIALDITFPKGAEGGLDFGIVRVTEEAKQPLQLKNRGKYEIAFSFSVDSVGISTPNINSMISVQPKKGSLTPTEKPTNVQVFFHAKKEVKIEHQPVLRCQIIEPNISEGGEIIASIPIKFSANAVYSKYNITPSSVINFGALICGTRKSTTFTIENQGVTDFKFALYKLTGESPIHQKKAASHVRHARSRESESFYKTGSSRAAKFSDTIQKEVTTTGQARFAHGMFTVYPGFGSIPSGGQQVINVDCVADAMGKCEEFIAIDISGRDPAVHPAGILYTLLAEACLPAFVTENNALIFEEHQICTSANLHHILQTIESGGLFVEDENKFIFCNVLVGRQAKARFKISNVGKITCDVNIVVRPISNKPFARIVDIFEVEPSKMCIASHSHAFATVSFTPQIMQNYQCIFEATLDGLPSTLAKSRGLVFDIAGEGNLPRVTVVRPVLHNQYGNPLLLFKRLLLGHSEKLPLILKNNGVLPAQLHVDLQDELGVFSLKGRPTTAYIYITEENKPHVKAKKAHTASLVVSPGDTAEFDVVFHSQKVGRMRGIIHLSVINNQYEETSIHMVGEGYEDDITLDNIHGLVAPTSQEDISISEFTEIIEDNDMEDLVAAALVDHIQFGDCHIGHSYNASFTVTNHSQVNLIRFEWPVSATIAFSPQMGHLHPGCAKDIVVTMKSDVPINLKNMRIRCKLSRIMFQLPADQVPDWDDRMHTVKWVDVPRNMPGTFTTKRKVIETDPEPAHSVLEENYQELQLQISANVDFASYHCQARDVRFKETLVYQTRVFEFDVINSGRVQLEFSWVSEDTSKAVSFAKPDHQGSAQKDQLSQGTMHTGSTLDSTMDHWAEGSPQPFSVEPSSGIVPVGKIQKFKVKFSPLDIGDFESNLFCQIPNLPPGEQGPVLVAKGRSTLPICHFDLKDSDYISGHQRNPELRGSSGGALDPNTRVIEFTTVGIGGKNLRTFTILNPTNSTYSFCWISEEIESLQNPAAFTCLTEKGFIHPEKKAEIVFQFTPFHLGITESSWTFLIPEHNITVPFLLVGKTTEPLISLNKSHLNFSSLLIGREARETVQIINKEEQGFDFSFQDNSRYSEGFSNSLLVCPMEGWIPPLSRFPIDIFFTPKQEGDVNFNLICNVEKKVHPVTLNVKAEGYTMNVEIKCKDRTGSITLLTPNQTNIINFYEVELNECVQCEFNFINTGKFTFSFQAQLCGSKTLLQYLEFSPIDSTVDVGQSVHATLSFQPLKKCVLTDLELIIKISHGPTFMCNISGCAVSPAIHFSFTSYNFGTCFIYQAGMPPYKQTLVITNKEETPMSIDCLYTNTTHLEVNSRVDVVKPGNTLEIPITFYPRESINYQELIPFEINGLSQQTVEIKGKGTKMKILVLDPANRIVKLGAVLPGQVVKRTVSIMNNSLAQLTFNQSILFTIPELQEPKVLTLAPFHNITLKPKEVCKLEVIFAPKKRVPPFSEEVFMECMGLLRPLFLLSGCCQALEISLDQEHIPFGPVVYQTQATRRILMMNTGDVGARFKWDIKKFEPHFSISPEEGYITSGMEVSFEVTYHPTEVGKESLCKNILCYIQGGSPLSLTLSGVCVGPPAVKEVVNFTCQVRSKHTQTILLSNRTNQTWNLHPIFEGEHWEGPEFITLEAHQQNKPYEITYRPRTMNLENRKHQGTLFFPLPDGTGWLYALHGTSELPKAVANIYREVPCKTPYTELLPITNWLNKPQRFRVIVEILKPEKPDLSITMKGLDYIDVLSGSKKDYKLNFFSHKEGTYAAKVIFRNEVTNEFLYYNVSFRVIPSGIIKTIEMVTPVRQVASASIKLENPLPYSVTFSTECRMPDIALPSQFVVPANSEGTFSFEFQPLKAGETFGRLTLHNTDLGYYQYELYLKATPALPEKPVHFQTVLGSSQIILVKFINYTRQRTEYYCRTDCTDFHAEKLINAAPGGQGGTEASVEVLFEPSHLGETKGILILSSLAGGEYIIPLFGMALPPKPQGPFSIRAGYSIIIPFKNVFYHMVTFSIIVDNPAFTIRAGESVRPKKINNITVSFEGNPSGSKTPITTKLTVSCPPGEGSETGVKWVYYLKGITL
UniProt Q92598: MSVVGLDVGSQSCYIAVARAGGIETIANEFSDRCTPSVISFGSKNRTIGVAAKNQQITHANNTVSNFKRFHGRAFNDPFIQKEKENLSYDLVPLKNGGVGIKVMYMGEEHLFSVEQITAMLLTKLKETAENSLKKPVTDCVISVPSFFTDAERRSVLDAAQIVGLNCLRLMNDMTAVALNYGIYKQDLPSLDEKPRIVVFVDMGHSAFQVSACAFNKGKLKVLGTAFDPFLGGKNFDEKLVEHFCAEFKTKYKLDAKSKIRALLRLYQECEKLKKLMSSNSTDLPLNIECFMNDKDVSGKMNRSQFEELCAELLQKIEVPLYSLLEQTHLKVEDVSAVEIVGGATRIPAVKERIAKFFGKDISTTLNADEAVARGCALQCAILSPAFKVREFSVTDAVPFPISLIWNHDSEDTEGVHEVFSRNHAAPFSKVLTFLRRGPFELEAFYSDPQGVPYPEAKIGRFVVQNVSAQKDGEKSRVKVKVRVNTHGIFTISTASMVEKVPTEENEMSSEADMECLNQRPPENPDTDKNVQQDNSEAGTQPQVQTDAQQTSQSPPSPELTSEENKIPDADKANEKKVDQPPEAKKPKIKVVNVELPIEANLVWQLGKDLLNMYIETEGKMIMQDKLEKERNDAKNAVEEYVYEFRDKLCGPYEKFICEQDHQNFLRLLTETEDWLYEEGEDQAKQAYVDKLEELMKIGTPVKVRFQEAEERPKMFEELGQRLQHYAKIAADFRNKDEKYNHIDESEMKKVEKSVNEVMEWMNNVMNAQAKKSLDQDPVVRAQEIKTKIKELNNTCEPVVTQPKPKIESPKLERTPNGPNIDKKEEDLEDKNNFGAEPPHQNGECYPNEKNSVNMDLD

Compound: Cc1nc(Nc2ncc(C(=O)Nc3c(C)cccc3Cl)s2)cc(N2CCN(CCO)CC2)n1 [dasatinib]
Test: log2 fold change, soluble protein after heating vs DMSO (PISA); higher = thermal stabilisation; K562 lysate, 10 uM; active = over 0.2 and 3.5 SD of the protein, either way, in both replicates (recomputed)
Method in brief: (§1)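 Log-two fold change in thermal stability relative to solvent controls is reported from duplicates. For each sample, crude K562 extract from dounce-homogenised pellets in PBS pH 7.4 with 1 mM MgCl2, at 1 mg/mL protein, was treated with 10 μM compound for 30 min. Aliquots heated for 3 min across 48°C-58°C were pooled, brought to 0.5% NP-40 at 4°C and cleared at 21,000xg for 90 min. The supernatant was quantified by TMTpro 16plex LC-MS/MS with channel sums equalised.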

log2 fold change, inactive:
ICAM4 isoform 3 (UniProt Q14773) -0.081
IFIT3 (UniProt O14879) -0.033
IFT22 (UniProt Q9H7X7) -0.101
INO80B (UniProt Q9C086) 0.32
INIP (UniProt Q9NRY2) -0.069
ING1 (UniProt Q9UK53) 0.1
INPP5A (UniProt Q14642) 0.066
HUWE1, A0A087X1S3 0.123
IFT43 (UniProt Q96FT9) 0.017
HYDIN (UniProt Q4G0P3) -0.034
HYOU1, A0A494C039 0
HSPH1 isoform 2 (UniProt Q92598) -0.386
IDH3A isoform 2 (UniProt P50213) -0.118

Compound: Cn1cc(-c2ccc3c(c2)CCN3C(=O)Cc2cccc(C(F)(F)F)c2)c2c(N)ncnc21
Test: as above
Method in brief: as §1

log2 fold change, inactive:
ICAM4 isoform 3 (UniProt Q14773) -0.098
IFIT3 (UniProt O14879) -0.079
IFT22 (UniProt Q9H7X7) 0.004
INO80B (UniProt Q9C086) 0.088
INIP (UniProt Q9NRY2) 0.207
ING1 (UniProt Q9UK53) 0.069
INPP5A (UniProt Q14642) 0.129
HUWE1, A0A087X1S3 -0.269
IFT43 (UniProt Q96FT9) -0.016
HYDIN (UniProt Q4G0P3) 0.219
HYOU1, A0A494C039 0.066
HSPH1 isoform 2 (UniProt Q92598) 0.17
IDH3A isoform 2 (UniProt P50213) 0.014

Compound: Cn1cc(CNCC2CCN(c3ncc(C(=O)NO)cn3)CC2)c2ccccc21 [quisinostat]
Test: as above
Method in brief: as §1

log2 fold change, inactive:
IGLL5 (UniProt B9A064) 0.089
ING4 (UniProt Q9UNL4) 0.04
IFIT3 (UniProt O14879) -0.072
ING2 (UniProt Q9H160) -0.12
IDUA (UniProt P35475) -0.128
ILF3 (UniProt K7EKJ9) 0.039
ING1 (UniProt Q9UK53) -0.009
INO80 (UniProt Q9ULG1) 0.148
IMP4 (UniProt Q96G21) -0.079
IFT81 (UniProt Q8WYA0) 0.032
IL13RA1 (UniProt P78552) -0.013
IFT43 (UniProt Q96FT9) -0.097
IL15RA (UniProt Q13261) 0.156

Compound: NC(=O)Nc1cc(-c2cccc(F)c2)sc1C(=O)N[C@H]1CCCNC1
Test: as above
Method in brief: as §1

log2 fold change, inactive:
IGLL5 (UniProt B9A064) -0.052
ING4 (UniProt Q9UNL4) 0.037
IFIT3 (UniProt O14879) -0.083
ING2 (UniProt Q9H160) -0.014
IDUA (UniProt P35475) -0.19
ILF3 (UniProt K7EKJ9) 0.049
ING1 (UniProt Q9UK53) 0.017
INO80 (UniProt Q9ULG1) -0.05
IMP4 (UniProt Q96G21) 0.017
IFT81 (UniProt Q8WYA0) 0.041
IL13RA1 (UniProt P78552) 0.039
IFT43 (UniProt Q96FT9) -0.036
IL15RA (UniProt Q13261) -0.034

Compound: NC(=O)c1cnc(N[C@@H]2CCCC[C@@H]2N)nc1Nc1cccc(-n2nccn2)c1
Test: as above
Method in brief: as §1

log2 fold change, inactive:
IGLL5 (UniProt B9A064) -0.155
ING4 (UniProt Q9UNL4) 0.077
HUWE1 isoform 2 (UniProt Q7Z6Z7) 0.009
IFIH1 (UniProt Q9BYX4) -0.237
INIP (UniProt Q9NRY2) -0.02
ILF3 (UniProt K7EKJ9) 0.165
INO80 (UniProt Q9ULG1) -0.116
IDS (UniProt P22304) -0.001
IMP4 (UniProt Q96G21) 0.046
HUWE1, A0A087X1S3 -0.086
HVCN1 (UniProt Q96D96) -0.121
IGF2BP2 isoform 6 (UniProt Q9Y6M1) 0.079
IGFN1 isoform 5 (UniProt Q86VF2) -0.133
HYDIN (UniProt Q4G0P3) -0.282
HSPH1 (UniProt Q5TBM3) 0.015
HYOU1, A0A494C039 0.005
HSPH1 isoform 2 (UniProt Q92598) -0.064
IDH3A isoform 2 (UniProt P50213) -0.069
